# Results reported in the supplement of paper PMC12823440, “Inhibitors supercharge kinase turnover through native proteolytic circuits” (Nature, 2025).
# Chains of the proteins cited; added tags and fusions are not shown. Lines headed by an entry give the natural chain unless they say otherwise; changes in a name come on top.
# UniProt Q9UQB9: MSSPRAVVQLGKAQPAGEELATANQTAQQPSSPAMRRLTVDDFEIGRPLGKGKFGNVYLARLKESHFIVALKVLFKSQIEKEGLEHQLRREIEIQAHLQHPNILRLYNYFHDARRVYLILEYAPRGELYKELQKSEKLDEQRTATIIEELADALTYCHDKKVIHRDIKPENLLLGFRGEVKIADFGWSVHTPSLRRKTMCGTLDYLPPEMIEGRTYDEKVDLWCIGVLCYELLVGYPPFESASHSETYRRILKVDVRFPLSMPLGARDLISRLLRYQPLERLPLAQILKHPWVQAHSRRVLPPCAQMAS
# Counter-ions that a name gives are not always drawn. This is one part of the list. Hit calls seldom repeat between salt and free forms of one compound.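 Kinases were expressed as nanoluciferase fusions in K562 cells and luminescence was read every 4 h between 2 and 18 h as percent of control, DMSO set to 100% and a positive control to 0%. A time point counts as decreased when the signal drops significantly (2 sigma). The hit call is the authors' own, does not follow from the count of time points alone, and its rule is not shown.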
# Molecular target: AURKC (UniProt Q9UQB9)
# Assay: number of time points (of 5) at which kinase-Nluc abundance scored as decreased, DMSO-normalised (count); higher = more persistent destabilization
# Settings: K562; 2-18 h
row,Structure (SMILES),number of time points
1,C[C@@H]1CCN(C(=O)CC#N)C[C@@H]1N(C)c1ncnc2[nH]ccc12 [Tofacitinib] (10 µM),0
2,CC#CC(=O)N1CC[C@@H](n2c(=O)n(-c3ccc(Oc4ccccc4)cc3)c3c(N)ncnc32)C1 [Tirabrutinib (hydrochloride)] (10 µM),0
3,Cc1ccc(C(=O)Nc2ccc(Oc3cc4cnn(C)c4cc3-c3cn[nH]c3)c(F)c2)c(=O)n1-c1ccc(F)cc1 [Merestinib] (2.5 µM),0
4,Cc1cc(Nc2ncnc3ccc(NC4=NC(C)(C)CO4)cc23)ccc1Oc1ccn2ncnc2c1 [Tucatinib (hemiethanolate)] (2.5 µM),0
5,C[C@@]1(c2ncncc2F)NC(=O)c2cc(-c3cn[nH]c3)ccc21 (10 µM),0
6,COc1cc(Nc2ncc(F)c(Nc3ccc4c(n3)NC(=O)C(C)(C)O4)n2)cc(OC)c1OC (10 µM),0
7,Cc1cc2ncc(-c3ccc(O)c(O)c3)nc2cc1C [Tyrphostin AG1433] (10 µM),0
8,C=CC(=O)Nc1cccc(Nc2nc(Nc3ccc(N4CCN(C(C)=O)CC4)cc3OC)ncc2C(F)(F)F)c1 [Rociletinib hydrobromide] (10 µM),0
9,Cc1cc(Nc2ncnc3ccc(NC4=NC(C)(C)CO4)cc23)ccc1Oc1ccn2ncnc2c1 [Tucatinib] (2.5 µM),0
10,CCc1cc2c(cc1N1CCC(N3CCOCC3)CC1)C(C)(C)c1[nH]c3cc(C#N)ccc3c1C2=O [Alectinib (Hydrochloride)] (2 µM),0
11,Cn1nccc1Nc1nccc(-c2ccn([C@H](CO)c3ccc(Cl)c(F)c3)c(=O)c2)n1 [Ravoxertinib hydrochloride] (10 µM),0
12,COc1cc2c(N3CCN(C(=O)Nc4ccc(OC(C)C)cc4)CC3)ncnc2cc1OCCCN1CCCCC1 [Tandutinib] (10 µM),0
13,CC#CC(=O)N1CC[C@@H](n2c(=O)n(-c3ccc(Oc4ccccc4)cc3)c3c(N)ncnc32)C1 [Tirabrutinib] (10 µM),0
14,C=CC(=O)Nc1cccc(Nc2nc(Nc3ccc(N4CCN(C(C)=O)CC4)cc3OC)ncc2C(F)(F)F)c1 [Rociletinib] (10 µM),0
15,COc1cc(Nc2ncc(F)c(Nc3ccc4c(n3)N(COP(=O)(O)O)C(=O)C(C)(C)O4)n2)cc(OC)c1OC [Fostamatinib Disodium] (10 µM),0
16,COc1cc2c(N3CCN(C(=O)Nc4ccc(OC(C)C)cc4)CC3)ncnc2cc1OCCCN1CCCCC1 [Tandutinib (hydrochloride)] (10 µM),0
17,COc1cc(Nc2ncc(F)c(Nc3ccc4c(n3)N(COP(=O)(O)O)C(=O)C(C)(C)O4)n2)cc(OC)c1OC [Fostamatinib (disodium hexahydrate)] (10 µM),0
18,COc1cc2nccc(Oc3ccc(NC(=O)NC4CC4)c(Cl)c3)c2cc1C(N)=O [Lenvatinib (mesylate)] (10 µM),0
19,Oc1ccc(Nc2nc(-c3ccc(Cl)cc3)cs2)cc1 (10 µM),0
20,NC(=O)c1nc(Nc2ccccc2)sc1NC(=O)C1CCCCC1 (10 µM),0

row,Structure (SMILES),number of time points
1,CC1=C(C(=O)O)N2C(=O)[C@@H](NC(=O)[C@H](N)C3=CCC=CC3)[C@H]2SC1 [Cephradine] (10 µM),0
2,Cc1ccc(C(=O)Nc2ccc(Oc3cc4cnn(C)c4cc3-c3cn[nH]c3)c(F)c2)c(=O)n1-c1ccc(F)cc1 [Merestinib dihydrochloride] (2.5 µM),0
3,Cc1ccc2nc(NCCN)c3ncc(C)n3c2c1 (2.5 µM),0
4,CC(=O)NC1CC(n2cnc(NC(=O)Cc3ccc4ccccc4c3)c2)C1 (centres undefined) (10 µM),0
5,COc1cc2nccc(Oc3ccc(NC(=O)NC4CC4)c(Cl)c3)c2cc1C(N)=O [Lenvatinib] (10 µM),0
6,Cn1cnc2c(F)c(Nc3ccc(Br)cc3Cl)c(C(=O)NOCCO)cc21 [Selumetinib (sulfate)] (10 µM),0
7,CCN1CCN(Cc2ccc(Nc3ncc(F)c(-c4cc(F)c5nc(C)n(C(C)C)c5c4)n3)nc2)CC1 [Abemaciclib] (2 µM),0
8,C[C@@H]1CCN(C(=O)CC#N)C[C@@H]1N(C)c1ncnc2[nH]ccc12 [Tofacitinib (citrate)] (10 µM),0
9,Cn1nccc1Nc1nccc(-c2ccn([C@H](CO)c3ccc(Cl)c(F)c3)c(=O)c2)n1 [Ravoxertinib] (10 µM),0
10,COc1cc(Nc2ncc(F)c(Nc3ccc4c(n3)NC(=O)C(C)(C)O4)n2)cc(OC)c1OC [R406 (free base)] (10 µM),0
11,S=C(SSC(=S)N1CCOCC1)N1CCOCC1 (10 µM),0
12,CC1CCc2c(cc(Br)c(F)c2Br)N1C=O (centres undefined) (10 µM),0
13,Cc1[nH]c(/C=C2\C(=O)Nc3ccccc32)c(C)c1CCC(=O)O [(Z)-Orantinib] (10 µM),0
14,CCN1CCN(Cc2ccc(Nc3ncc(F)c(-c4cc(F)c5nc(C)n(C(C)C)c5c4)n3)nc2)CC1 [Abemaciclib (methanesulfonate)] (10 µM),0
15,Cn1cnc2c(F)c(Nc3ccc(Br)cc3Cl)c(C(=O)NOCCO)cc21 [Selumetinib] (10 µM),0
16,CCc1cc2c(cc1N1CCC(N3CCOCC3)CC1)C(C)(C)c1[nH]c3cc(C#N)ccc3c1C2=O [Alectinib] (10 µM),0
17,C=C(CC[C@@H](C(=O)O)[C@H]1[C@H](O)C[C@@]2(C)C3=C(CC[C@]12C)[C@@]1(C)CC[C@H](OC(C)=O)C(C)(C)[C@@H]1CC3)C(C)C [Pachymic acid] (10 µM),0
18,Cc1[nH]c(/C=C2\C(=O)Nc3ccccc32)c(C)c1CCC(=O)O [Orantinib] (10 µM),0
19,C=CC(=O)Nc1ccc(CN2C(=O)N(c3cc(OC)cc(OC)c3)Cc3cnc(Nc4ccc(N5CCN(C)CC5)cc4)nc32)cc1 (2.5 µM),0

# Fetched one by one from the entries so far, 2 records:
row,Structure (SMILES),number of time points
16,CCc1cc2c(cc1N1CCC(N3CCOCC3)CC1)C(C)(C)c1[nH]c3cc(C#N)ccc3c1C2=O [Alectinib] (10 µM),0
1,CC1=C(C(=O)O)N2C(=O)[C@@H](NC(=O)[C@H](N)C3=CCC=CC3)[C@H]2SC1 [Cephradine] (10 µM),0
